Some of the results follow. The data scatter; read single values as rough.
compound: ClCC(=O)N[C@H]1CCCc2ccccc12; assay: log2 mean competition ratio of IA-DTB cysteine labelling (DMSO/compound) (log2 ratio); higher = stronger cysteine engagement by compound; conditions: 50 µM; treatment time: 4 h; cell line lysate: HEK293T
Procedure: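 IA-DTB competitive cysteine chemoproteomics in HEK293T RIPA lysate. Lysates were treated with compound 29 or 30 at 50 or 200 µM for 4 h, then IA-DTB (500 µM, 1 h), trypsin-digested, NeutrAvidin-enriched and analysed by diaPASEF. Competition ratio = intensity DMSO / intensity compound (n=4 treated, n=64 DMSO); binding: mean log2 CR ≥ 1 and p ≤ 0.05 plus QC filters. Target is the cysteine site.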

The chains behind the UniProt entries cited, without tags or fusion partners. Where a name states a change or a piece, a line headed by the entry shows the natural chain unless it says otherwise. Residues count along the entry.
UniProt Q9BVK6: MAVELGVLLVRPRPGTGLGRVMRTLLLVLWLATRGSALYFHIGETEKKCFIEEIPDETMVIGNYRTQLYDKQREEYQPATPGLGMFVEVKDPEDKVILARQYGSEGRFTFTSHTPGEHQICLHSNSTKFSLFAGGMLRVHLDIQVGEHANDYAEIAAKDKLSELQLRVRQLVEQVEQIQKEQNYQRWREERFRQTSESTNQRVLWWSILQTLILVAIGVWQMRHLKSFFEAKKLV
UniProt Q9NPL8: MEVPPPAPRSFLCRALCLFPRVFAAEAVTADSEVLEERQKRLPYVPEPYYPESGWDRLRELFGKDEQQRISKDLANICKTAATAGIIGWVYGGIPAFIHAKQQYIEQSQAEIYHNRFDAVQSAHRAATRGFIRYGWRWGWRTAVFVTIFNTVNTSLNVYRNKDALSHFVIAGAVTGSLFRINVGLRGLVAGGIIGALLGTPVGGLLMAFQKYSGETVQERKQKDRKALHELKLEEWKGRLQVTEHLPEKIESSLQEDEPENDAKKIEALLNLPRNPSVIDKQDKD
UniProt Q15785: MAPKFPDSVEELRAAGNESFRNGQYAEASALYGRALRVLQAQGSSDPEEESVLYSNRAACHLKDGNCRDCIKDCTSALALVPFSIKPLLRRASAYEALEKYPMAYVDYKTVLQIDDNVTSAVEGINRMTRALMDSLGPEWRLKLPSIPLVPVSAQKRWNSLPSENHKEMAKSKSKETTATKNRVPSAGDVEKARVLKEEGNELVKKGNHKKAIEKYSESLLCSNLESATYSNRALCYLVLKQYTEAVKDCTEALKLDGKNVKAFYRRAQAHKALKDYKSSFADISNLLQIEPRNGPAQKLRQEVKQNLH
UniProt Q9Y4G6: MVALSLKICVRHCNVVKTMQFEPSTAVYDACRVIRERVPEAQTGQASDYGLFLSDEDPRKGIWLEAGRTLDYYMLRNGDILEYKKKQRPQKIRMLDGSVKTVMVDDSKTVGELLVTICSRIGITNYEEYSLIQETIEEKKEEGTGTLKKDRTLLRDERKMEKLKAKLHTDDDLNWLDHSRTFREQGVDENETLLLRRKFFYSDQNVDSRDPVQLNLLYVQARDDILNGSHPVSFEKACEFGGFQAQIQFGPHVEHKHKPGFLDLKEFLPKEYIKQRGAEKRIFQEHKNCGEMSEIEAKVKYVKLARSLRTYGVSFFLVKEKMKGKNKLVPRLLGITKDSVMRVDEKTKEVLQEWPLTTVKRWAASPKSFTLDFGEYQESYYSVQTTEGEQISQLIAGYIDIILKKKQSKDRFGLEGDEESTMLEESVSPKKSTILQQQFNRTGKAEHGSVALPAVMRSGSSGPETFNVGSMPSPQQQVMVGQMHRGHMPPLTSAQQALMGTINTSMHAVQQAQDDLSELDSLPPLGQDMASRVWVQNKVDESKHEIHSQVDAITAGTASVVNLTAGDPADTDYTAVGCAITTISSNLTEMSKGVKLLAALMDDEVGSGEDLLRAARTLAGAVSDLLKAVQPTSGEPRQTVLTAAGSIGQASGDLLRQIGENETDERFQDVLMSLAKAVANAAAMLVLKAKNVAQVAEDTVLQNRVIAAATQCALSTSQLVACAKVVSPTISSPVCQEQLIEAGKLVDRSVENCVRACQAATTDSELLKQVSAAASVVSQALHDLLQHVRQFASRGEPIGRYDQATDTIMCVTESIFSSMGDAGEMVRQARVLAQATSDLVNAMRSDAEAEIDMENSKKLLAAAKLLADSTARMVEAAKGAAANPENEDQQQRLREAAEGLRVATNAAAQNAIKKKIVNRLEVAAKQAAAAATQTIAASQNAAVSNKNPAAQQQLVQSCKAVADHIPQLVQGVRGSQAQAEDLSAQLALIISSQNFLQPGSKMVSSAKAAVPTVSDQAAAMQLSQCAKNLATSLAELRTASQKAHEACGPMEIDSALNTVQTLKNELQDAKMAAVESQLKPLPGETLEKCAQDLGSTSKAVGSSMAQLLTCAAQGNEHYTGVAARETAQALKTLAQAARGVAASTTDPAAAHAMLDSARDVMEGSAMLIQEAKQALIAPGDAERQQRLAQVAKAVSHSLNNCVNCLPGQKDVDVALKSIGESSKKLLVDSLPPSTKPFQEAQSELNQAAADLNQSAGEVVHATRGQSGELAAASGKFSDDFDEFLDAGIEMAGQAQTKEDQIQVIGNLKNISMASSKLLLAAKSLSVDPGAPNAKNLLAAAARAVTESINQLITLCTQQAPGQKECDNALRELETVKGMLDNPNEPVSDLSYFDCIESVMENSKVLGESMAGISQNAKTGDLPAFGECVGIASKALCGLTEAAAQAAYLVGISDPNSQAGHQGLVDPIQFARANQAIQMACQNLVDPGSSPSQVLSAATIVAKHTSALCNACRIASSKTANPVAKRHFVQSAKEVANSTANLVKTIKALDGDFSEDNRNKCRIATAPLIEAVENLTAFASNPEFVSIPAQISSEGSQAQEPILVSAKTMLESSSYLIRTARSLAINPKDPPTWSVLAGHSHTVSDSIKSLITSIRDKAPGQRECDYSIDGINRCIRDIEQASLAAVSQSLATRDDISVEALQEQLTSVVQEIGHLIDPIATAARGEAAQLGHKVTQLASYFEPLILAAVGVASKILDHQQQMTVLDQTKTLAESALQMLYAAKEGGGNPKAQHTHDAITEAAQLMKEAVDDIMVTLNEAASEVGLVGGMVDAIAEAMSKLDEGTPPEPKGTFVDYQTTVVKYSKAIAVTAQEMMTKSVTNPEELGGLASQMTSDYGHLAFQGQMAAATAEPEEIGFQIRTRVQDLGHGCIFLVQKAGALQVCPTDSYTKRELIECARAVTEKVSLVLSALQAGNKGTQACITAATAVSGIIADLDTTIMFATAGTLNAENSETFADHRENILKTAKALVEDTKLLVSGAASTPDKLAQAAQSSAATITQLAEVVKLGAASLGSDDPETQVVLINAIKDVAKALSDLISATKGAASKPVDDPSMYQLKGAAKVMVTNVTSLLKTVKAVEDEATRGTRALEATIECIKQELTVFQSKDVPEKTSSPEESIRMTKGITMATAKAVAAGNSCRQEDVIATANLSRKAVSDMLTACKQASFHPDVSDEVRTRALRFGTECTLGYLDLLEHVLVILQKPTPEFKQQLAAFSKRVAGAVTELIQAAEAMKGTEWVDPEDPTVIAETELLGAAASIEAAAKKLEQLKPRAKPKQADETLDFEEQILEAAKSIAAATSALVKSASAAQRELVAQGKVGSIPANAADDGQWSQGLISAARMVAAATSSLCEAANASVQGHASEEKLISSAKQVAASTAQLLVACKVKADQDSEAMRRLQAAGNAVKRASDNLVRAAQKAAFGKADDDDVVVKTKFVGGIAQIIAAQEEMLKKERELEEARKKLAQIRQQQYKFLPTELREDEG
UniProt Q68CZ2: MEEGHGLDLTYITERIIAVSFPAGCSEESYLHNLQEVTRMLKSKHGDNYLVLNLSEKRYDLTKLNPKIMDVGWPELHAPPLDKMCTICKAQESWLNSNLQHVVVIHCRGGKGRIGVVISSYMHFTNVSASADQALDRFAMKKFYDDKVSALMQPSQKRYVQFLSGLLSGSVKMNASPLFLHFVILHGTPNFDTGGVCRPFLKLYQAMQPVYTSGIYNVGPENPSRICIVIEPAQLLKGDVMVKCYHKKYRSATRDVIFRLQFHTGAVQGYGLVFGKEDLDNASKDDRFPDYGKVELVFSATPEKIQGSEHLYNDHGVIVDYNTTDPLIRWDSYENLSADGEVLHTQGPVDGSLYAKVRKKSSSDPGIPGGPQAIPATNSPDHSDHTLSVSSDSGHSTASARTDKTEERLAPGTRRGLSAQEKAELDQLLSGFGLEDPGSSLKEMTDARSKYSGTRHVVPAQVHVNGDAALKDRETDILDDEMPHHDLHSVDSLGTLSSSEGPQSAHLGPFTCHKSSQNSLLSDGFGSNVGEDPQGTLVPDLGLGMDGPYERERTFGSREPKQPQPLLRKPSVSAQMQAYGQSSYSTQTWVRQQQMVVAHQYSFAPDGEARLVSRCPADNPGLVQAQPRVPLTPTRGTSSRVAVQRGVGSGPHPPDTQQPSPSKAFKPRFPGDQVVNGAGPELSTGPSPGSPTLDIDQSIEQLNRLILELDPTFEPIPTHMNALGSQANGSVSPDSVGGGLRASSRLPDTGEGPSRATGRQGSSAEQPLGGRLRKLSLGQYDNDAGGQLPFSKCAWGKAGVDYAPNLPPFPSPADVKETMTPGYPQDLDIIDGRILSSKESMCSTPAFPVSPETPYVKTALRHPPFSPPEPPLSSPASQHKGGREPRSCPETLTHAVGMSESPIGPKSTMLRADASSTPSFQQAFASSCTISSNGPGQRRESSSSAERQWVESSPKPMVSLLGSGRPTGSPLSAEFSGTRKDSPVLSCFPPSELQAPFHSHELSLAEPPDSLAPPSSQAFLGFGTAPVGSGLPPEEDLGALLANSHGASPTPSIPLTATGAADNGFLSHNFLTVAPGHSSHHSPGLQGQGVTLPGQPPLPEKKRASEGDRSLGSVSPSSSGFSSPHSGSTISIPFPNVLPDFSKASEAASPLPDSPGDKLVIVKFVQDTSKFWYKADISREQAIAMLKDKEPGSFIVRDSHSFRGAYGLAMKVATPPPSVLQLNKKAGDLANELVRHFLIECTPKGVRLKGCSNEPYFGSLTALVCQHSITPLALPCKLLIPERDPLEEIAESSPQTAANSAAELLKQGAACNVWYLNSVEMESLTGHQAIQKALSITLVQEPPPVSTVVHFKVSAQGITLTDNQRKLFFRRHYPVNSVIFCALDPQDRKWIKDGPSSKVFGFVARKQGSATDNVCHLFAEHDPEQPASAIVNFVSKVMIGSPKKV
UniProt Q12888, 89-116: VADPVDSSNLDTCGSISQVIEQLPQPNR
UniProt Q9Y5L0: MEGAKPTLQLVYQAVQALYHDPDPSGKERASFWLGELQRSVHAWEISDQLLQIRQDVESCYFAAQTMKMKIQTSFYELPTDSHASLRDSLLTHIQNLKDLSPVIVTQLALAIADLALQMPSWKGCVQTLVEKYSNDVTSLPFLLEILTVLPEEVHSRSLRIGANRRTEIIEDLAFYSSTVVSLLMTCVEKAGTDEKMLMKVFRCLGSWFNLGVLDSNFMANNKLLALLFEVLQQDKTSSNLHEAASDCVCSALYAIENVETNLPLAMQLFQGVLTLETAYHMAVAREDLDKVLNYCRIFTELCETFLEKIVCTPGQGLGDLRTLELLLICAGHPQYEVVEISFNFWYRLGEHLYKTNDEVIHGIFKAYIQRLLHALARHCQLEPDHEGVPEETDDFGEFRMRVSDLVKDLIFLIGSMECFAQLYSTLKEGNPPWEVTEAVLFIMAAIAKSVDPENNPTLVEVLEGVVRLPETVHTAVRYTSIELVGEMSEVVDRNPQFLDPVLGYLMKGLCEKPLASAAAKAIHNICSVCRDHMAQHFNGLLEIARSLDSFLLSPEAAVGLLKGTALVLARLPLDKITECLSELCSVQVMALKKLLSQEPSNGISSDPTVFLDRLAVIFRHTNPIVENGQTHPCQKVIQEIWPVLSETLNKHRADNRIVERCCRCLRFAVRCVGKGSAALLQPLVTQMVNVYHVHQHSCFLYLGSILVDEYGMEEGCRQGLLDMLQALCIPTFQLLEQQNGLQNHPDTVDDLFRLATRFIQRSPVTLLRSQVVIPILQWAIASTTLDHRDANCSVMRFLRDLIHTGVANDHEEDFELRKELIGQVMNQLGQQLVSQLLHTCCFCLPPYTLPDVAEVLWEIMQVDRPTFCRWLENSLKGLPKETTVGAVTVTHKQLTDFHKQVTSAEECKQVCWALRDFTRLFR
UniProt O14763: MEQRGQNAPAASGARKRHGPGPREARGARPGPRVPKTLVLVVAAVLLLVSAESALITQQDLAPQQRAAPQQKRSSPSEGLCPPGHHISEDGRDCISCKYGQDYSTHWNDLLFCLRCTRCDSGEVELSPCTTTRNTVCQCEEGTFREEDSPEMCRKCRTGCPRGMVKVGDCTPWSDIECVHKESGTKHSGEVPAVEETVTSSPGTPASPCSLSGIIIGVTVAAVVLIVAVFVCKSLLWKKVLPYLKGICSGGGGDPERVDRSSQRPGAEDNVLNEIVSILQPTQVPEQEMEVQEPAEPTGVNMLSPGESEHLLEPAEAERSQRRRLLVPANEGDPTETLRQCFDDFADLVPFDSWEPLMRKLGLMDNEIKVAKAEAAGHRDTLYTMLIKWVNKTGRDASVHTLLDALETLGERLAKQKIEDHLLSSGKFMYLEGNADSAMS
UniProt Q3ZCQ8: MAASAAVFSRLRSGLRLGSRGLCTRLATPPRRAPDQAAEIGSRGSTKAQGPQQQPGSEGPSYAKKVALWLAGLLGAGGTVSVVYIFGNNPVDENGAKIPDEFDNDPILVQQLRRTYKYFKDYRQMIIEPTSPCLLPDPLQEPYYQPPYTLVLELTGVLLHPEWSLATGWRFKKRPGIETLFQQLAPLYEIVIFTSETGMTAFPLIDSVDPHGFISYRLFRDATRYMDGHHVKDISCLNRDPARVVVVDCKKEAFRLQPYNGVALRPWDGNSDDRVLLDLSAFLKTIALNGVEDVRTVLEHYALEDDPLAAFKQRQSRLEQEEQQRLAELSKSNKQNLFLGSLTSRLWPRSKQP

Q: How did the “log2 mean competition ratio” value turn out when TNKS1BP1 C669 (UniProt Q9C0C2) was run?
A: Its value is 0.139.

Q: Which “log2 mean competition ratio” value does the source give for TMED9 C49 (UniProt Q9BVK6) here?
A: Its value is -0.203.

Q: How did the “log2 mean competition ratio” value turn out when TIMMDC1 C78 (UniProt Q9NPL8) was run?
A: Its value is 0.0889.

Q: How did the “log2 mean competition ratio” value turn out when TOMM34 C222 (UniProt Q15785) was run?
A: Its value is 0.3.

Q: For TOP1 C733 (UniProt P11387), which “log2 mean competition ratio” value is on record?
A: Its value is 0.176.

Q: Which “log2 mean competition ratio” value does the source give for TP53INP2 C214 here?
A: The value was 0.36.

Q: Which “log2 mean competition ratio” value does the source give for TLN2 C2197 (UniProt Q9Y4G6) here?
A: The value was -0.0659.

Q: TNS3 C1241 (UniProt Q68CZ2) was tested. Which “log2 mean competition ratio” value did it give?
A: Its value is -0.409.

Q: How did the “log2 mean competition ratio” value turn out when TRIM4 C87 (UniProt Q9C037) was run?
A: Its value is -0.13.

Q: TRAPPC8 C943 (UniProt Q9Y2L5) was tested. Which “log2 mean competition ratio” value did it give?
A: Its value is -0.432.

Q: How did the “log2 mean competition ratio” value turn out when TP53BP1 C101 (UniProt Q12888) was run?
A: Its value is -0.435.

Q: With TPD52L1 C204 (UniProt Q16890) as the target, how does the “log2 mean competition ratio” value read?
A: The value was -0.158.

Q: How did the “log2 mean competition ratio” value turn out when TNPO3 C793 (UniProt Q9Y5L0) was run?
A: The value was 0.503.

Q: Which “log2 mean competition ratio” value does the source give for TMSB15A;TMSB15B C41;(C41) here?
A: The value was -0.0749.

Q: For TNFRSF10B C248 (UniProt O14763), which “log2 mean competition ratio” value is on record?
A: Its value is -0.0501.

Q: For TNPO3 C303 (UniProt Q9Y5L0), which “log2 mean competition ratio” value is on record?
A: The value was -0.242.

Q: With TNFRSF1A C248 (UniProt P19438) as the target, how does the “log2 mean competition ratio” value read?
A: Its value is 0.0556.

Q: For TIMM50 C236 (UniProt Q3ZCQ8), which “log2 mean competition ratio” value is on record?
A: The value was -0.0612.

Q: Which “log2 mean competition ratio” value does the source give for TMLHE C85 (UniProt Q9NVH6) here?
A: Its value is -0.0265.

Q: TLE4 C529 (UniProt Q04727) was tested. Which “log2 mean competition ratio” value did it give?
A: The value was -0.28.

same assay, conditions: 200 µM; treatment time: 4 h; cell line lysate: HEK293T

Q: For TNKS1BP1 C669 (UniProt Q9C0C2), which “log2 mean competition ratio” value is on record?
A: Its value is 0.472.

Q: For TMED9 C49 (UniProt Q9BVK6), which “log2 mean competition ratio” value is on record?
A: The value was -0.0837.

Q: With TIMMDC1 C78 (UniProt Q9NPL8) as the target, how does the “log2 mean competition ratio” value read?
A: Its value is 0.193.

Q: With TOMM34 C222 (UniProt Q15785) as the target, how does the “log2 mean competition ratio” value read?
A: Its value is 0.0831.

Q: With TOP1 C733 (UniProt P11387) as the target, how does the “log2 mean competition ratio” value read?
A: The value was -0.00772.

Q: For TP53INP2 C214, which “log2 mean competition ratio” value is on record?
A: The value was -0.0792.

Q: TLN2 C2197 (UniProt Q9Y4G6) was tested. Which “log2 mean competition ratio” value did it give?
A: The value was 0.234.

Q: TNS3 C1241 (UniProt Q68CZ2) was tested. Which “log2 mean competition ratio” value did it give?
A: The value was 0.0617.

Q: With TRIM4 C87 (UniProt Q9C037) as the target, how does the “log2 mean competition ratio” value read?
A: The value was -0.0237.

Q: With TRAPPC8 C943 (UniProt Q9Y2L5) as the target, how does the “log2 mean competition ratio” value read?
A: Its value is -0.104.

Q: For TP53BP1 C101 (UniProt Q12888), which “log2 mean competition ratio” value is on record?
A: The value was -0.181.

Q: How did the “log2 mean competition ratio” value turn out when TPD52L1 C204 (UniProt Q16890) was run?
A: Its value is 0.322.

Q: TNPO3 C793 (UniProt Q9Y5L0) was tested. Which “log2 mean competition ratio” value did it give?
A: The value was 1.19.

Q: TMSB15A;TMSB15B C41;(C41) was tested. Which “log2 mean competition ratio” value did it give?
A: The value was 0.0971.

Q: With TNFRSF10B C248 (UniProt O14763) as the target, how does the “log2 mean competition ratio” value read?
A: The value was -0.0281.

Q: For TNPO3 C303 (UniProt Q9Y5L0), which “log2 mean competition ratio” value is on record?
A: Its value is -0.0246.

Q: For TNFRSF1A C248 (UniProt P19438), which “log2 mean competition ratio” value is on record?
A: The value was -0.279.

Q: How did the “log2 mean competition ratio” value turn out when TIMM50 C236 (UniProt Q3ZCQ8) was run?
A: Its value is -0.0227.

Q: For TMLHE C85 (UniProt Q9NVH6), which “log2 mean competition ratio” value is on record?
A: Its value is -0.015.

Q: TLE4 C529 (UniProt Q04727) was tested. Which “log2 mean competition ratio” value did it give?
A: The value was 0.101.
